Positions count from the first letter of the chain named. Results are given in words; binding and its absence hold for the method and conditions named. Some results given as binding are weak or reduced against the parent protein; the word gives no strength. For part of these data: Sequences can lack the tags named with a protein.
B1: 5-mIgG2aFc (Fc fusion, not shown: a dimerising Fc or GST)
chain: QVQLVESGGGLVQTGGSLRLSCAASDSTFSSYIMGWFRQAPGKEREFVAGITWSGGIKDYADSVKGRFTIARDNAKNTVYLQMNSLKPEDAAIYYCAANAIQLTRRSGDYAYWGQGTQVTVSS
B2: 2-mIgG2aFc (Fc fusion, not shown: a dimerising Fc or GST)
chain: EVQLVESGGGLVQPGGSLRLSCAASGNILSINYMGWYRQAPGKERELVATITRGGSTNYQGNLKGRFIISGDNTKDTVYLQMNNLQPEDTAVYYCYFRINFGILGGLRDYWGQGTQVTVSS
B3: 18-mIgG2aFc (Fc fusion, not shown: a dimerising Fc or GST)
chain: QVQLVESGGGLVQPGGSLRLSCAASGSILNLMTTGWYRQAPGKQRDLVATITFGGTTNYADAVKGRFTISRDNAKNTVYLQMNNLEPEDTAVYFCYLDYIFGFGDRRVAWDQGTQVTVSS
B4: 5H2-mIgG2a Fc (Fc fusion, not shown: a dimerising Fc or GST)
chain: B1 chain with T14P, E44G, R45L, A75S, V79L, K87R, P88A, I93V, Q118L
B5: 5H1-mIgG Fc (Fc fusion, not shown: a dimerising Fc or GST)
chain: B1 chain with F37V, E44G, R45L, F47W
B6: 5-hIgG1Fc (Fc fusion, not shown: a dimerising Fc or GST)
chain: B1 chain
B7: 8-hIgG1Fc (Fc fusion, not shown: a dimerising Fc or GST)
chain: QVQLVESGGGLVQPGGSLRLSCAASGSIFGLNFMGWWRQAPGSQRELVAIATSGGSIQYGDSVKGRFTISRDNAKNTVYLQMASLKPEDTAVYYCNVHTYDFLGRDYWGQGTQVTVSL

Sequences of proteins named here, by UniProt entry; tags and fusion partners are left off. A change or cut given only in a name is not applied to a line headed by its entry. A line that says so, or that is headed by a name, gives the form on record, which may keep a tag or linker.
Claudin 18.2 VLP (P56856, form named): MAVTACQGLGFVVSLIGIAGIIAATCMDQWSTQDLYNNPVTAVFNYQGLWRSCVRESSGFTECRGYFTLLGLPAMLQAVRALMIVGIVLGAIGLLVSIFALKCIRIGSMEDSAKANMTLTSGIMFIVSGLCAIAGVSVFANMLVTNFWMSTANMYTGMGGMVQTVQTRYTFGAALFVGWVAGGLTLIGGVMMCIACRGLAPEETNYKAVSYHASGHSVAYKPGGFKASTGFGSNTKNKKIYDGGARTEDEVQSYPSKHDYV

Experiments:
Claudin 18.2 VLP [1] = molecular target: Claudin 18.2 VLP (UniProt P56856); experiment: ELISA, Claudin18.2-VLP coated 200 ng/well, anti-mouse IgG Fc detection; ranking by EC50
[2] = molecular target: Claudin18.2 recombinant protein (His tag) (UniProt P56856); experiment: ELISA, coated antigen 200 ng/well; antibody 100 ug/mL (so in the source); absorbance at 450 nm above the reader's range
Claudin 18.2 VLP [3] = molecular target: Claudin 18.2 VLP (UniProt P56856); experiment: ELISA, coated antigen
[4] = molecular target: Claudin18.2 recombinant protein (His tag) (UniProt P56856); experiment: ELISA, coated antigen

Row | Binder | binding (Claudin 18.2 VLP [1]) | further results
1 | B1 | binds | –
2 | B2 | binds | –
3 | B3 | binds | –
4 | B4 | binds | –
5 | B5 | binds | –
6 | B6 | – | binding [2]: binds; binding (Claudin 18.2 VLP [3]): binds; binding [4]: binds
7 | B7 | – | binding (Claudin 18.2 VLP [3]): binds

Reference: patent publication EP4682169A1
